From publication PMC11348715 (Chemical Science, 2024)

Test: Caco-2 permeability assay
Format: in vitro ADME
Conditions: human

- Papp A→B at 10 µM: 0.121 ×10⁻⁶ cm/s
Structure (SMILES): CC(C)NCC(O)COc1ccc(CC(N)=O)cc1 (stereo not shown) [atenolol]
